Test results: the supplement of paper PMC10849652
This is one part of the list.

Sequences of proteins named here, by UniProt entry; tags and fusion partners are left off. A change or cut given only in a name is not applied to a line headed by its entry.
UniProt Q96LU5: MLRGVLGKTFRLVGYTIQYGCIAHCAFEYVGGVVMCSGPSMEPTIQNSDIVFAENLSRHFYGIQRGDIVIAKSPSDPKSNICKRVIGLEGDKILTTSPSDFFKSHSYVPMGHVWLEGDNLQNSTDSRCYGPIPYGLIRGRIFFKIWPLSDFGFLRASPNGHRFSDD
UniProt Q7Z6Z7, whole entry, looked up: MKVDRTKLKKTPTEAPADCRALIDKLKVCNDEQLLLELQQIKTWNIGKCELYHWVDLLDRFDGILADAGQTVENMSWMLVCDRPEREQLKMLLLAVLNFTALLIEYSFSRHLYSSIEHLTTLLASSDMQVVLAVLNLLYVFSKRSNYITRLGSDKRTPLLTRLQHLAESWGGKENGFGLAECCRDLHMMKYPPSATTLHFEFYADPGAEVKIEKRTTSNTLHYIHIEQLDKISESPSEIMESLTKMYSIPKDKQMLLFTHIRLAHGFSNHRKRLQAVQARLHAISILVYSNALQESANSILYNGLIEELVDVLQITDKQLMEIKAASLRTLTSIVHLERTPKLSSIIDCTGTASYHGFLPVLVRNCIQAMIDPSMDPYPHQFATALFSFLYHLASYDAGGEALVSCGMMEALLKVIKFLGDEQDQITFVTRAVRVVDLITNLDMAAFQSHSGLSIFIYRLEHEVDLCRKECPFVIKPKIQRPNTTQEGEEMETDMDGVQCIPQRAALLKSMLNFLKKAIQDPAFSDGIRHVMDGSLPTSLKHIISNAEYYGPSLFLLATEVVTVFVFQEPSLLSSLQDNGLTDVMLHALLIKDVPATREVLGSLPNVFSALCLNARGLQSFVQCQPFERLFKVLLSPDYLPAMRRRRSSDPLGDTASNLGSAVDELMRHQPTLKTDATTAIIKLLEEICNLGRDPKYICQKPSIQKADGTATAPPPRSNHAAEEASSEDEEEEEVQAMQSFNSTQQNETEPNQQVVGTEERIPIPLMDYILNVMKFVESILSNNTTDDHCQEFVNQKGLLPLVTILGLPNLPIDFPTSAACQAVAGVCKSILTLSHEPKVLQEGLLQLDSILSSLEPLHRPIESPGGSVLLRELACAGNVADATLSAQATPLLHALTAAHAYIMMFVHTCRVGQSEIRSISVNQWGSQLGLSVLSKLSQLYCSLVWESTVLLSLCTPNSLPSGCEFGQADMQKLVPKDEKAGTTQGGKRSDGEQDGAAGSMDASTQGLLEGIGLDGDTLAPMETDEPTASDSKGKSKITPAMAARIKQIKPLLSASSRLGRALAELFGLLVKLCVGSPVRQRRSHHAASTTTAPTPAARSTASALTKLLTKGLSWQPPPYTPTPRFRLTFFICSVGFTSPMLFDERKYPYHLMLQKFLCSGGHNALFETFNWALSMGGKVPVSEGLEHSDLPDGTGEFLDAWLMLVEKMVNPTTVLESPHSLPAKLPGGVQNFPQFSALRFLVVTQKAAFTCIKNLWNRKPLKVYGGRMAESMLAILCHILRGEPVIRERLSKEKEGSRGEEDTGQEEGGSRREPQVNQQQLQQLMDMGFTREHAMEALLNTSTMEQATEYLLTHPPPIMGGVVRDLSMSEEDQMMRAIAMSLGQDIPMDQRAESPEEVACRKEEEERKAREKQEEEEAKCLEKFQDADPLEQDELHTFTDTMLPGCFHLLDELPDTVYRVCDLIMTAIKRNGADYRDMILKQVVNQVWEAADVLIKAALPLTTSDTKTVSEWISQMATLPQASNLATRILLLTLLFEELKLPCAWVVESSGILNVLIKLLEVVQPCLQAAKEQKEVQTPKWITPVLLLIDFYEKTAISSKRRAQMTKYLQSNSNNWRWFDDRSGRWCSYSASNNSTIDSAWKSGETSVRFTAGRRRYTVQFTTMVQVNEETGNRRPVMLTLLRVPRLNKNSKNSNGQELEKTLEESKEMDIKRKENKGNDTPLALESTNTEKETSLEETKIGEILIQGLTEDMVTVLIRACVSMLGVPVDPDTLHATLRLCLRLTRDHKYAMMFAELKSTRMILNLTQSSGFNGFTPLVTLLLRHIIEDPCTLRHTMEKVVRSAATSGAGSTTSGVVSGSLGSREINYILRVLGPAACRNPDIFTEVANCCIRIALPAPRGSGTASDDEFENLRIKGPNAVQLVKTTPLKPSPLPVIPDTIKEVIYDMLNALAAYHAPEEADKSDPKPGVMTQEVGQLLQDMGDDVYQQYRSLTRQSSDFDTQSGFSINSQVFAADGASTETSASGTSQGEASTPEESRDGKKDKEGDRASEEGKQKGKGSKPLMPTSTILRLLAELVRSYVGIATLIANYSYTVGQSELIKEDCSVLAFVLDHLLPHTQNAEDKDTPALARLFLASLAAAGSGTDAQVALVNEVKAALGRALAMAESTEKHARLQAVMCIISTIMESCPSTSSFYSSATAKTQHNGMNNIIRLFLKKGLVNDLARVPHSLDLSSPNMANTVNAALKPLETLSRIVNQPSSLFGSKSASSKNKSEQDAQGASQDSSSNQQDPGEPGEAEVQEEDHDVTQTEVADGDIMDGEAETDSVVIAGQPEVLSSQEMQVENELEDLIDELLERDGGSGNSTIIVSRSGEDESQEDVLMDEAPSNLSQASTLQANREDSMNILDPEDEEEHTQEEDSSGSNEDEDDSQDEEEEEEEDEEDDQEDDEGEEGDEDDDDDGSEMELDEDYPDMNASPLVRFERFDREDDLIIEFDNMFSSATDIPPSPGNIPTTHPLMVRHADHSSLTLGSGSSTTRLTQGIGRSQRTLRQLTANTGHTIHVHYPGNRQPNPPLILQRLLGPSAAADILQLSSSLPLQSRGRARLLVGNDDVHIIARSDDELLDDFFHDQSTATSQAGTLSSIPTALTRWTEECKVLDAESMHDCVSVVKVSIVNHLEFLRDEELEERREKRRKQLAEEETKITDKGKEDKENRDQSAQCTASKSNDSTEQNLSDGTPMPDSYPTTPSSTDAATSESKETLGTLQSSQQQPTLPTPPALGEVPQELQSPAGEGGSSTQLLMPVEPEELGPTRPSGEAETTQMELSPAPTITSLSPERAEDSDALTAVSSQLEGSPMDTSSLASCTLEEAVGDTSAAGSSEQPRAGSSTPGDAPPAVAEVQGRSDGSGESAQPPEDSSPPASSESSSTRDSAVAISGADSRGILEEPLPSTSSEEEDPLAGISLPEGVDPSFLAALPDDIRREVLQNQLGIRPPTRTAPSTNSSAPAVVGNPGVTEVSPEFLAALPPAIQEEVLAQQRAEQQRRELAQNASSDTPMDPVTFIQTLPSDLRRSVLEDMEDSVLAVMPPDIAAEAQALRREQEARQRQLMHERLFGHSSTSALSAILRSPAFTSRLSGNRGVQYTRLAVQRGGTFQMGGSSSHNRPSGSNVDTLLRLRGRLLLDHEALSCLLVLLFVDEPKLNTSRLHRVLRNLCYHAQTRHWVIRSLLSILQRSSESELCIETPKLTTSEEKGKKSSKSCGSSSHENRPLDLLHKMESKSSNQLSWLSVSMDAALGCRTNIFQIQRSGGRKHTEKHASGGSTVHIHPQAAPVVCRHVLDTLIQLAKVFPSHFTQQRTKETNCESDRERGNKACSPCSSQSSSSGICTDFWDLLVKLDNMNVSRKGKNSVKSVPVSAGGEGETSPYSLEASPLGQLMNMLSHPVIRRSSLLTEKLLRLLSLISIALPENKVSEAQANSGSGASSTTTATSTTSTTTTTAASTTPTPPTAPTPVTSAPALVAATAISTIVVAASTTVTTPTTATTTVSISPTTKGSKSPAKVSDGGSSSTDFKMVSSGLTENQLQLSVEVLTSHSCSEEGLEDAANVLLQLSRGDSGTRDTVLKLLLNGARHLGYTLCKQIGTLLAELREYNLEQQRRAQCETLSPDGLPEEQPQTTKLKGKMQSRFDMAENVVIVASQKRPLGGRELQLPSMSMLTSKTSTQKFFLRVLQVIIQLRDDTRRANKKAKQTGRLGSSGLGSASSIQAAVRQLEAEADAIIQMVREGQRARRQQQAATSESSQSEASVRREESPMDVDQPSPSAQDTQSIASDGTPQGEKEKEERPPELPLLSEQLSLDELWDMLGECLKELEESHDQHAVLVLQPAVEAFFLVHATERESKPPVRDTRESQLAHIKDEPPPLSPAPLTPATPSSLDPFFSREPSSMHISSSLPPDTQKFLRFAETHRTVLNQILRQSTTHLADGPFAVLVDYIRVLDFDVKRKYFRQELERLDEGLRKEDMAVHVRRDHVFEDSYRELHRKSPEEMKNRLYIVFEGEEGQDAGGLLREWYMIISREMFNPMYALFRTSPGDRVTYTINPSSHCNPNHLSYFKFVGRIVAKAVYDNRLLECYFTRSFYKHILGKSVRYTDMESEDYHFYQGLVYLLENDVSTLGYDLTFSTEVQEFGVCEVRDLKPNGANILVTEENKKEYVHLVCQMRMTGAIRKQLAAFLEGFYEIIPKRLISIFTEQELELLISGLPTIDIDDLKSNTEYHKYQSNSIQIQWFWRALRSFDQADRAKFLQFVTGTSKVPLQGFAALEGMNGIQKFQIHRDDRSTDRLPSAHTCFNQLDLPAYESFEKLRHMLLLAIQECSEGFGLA
UniProt Q9ULG1, whole entry, looked up: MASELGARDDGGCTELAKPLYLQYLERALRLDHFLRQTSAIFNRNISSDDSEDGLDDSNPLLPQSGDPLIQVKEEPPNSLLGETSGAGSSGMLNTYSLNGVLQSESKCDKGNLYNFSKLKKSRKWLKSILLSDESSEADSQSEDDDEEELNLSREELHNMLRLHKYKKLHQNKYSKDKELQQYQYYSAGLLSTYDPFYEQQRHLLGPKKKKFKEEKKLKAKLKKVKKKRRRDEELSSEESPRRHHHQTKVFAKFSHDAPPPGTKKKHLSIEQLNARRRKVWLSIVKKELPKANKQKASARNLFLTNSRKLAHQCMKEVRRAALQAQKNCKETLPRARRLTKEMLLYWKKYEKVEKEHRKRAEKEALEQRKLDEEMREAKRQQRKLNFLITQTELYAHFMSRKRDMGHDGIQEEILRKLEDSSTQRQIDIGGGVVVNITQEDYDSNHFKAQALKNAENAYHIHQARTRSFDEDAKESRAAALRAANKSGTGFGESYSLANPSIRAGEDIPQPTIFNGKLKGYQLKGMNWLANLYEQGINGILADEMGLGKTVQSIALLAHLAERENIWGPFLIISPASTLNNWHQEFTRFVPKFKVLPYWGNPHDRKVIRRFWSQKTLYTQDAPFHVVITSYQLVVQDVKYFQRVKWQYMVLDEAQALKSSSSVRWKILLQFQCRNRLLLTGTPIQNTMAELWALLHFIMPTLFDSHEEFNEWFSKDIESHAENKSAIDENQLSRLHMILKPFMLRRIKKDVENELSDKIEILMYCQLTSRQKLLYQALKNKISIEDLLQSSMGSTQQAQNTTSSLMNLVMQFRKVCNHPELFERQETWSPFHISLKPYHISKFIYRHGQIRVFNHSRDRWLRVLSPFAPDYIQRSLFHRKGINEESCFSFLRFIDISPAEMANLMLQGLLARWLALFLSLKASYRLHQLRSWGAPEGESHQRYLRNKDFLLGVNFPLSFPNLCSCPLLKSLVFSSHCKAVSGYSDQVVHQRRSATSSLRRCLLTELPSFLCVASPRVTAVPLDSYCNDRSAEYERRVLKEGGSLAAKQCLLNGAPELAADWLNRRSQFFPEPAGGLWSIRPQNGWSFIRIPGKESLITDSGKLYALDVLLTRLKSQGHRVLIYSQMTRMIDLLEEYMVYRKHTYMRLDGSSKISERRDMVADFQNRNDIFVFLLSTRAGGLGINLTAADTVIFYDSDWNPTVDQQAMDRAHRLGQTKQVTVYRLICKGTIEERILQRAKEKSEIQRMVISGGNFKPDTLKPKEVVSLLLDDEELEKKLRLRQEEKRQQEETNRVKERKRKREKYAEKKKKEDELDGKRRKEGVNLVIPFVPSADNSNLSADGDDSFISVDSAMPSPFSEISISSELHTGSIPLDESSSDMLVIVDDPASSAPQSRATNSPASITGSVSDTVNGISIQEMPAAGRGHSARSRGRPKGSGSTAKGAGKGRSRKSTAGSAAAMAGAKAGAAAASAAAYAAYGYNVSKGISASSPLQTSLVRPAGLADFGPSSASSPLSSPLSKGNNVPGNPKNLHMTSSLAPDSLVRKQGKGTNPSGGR
UniProt Q9Y366: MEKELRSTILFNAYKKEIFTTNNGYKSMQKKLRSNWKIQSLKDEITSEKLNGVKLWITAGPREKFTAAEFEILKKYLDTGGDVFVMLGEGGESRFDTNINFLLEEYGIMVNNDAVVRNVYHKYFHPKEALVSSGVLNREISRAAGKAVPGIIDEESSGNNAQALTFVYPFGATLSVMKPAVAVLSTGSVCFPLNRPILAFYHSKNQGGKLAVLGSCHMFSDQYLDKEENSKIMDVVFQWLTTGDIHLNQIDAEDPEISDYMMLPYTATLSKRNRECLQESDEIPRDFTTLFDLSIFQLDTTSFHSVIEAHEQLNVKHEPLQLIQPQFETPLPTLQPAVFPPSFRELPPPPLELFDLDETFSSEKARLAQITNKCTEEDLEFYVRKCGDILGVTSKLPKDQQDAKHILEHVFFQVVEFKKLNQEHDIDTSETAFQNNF
UniProt P15516: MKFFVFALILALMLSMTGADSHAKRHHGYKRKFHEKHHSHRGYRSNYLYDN

How the values were obtained:
Assay in all cases: log2 fold change, soluble protein after heating vs DMSO (PISA); higher = thermal stabilisation; K562 lysate, 10 uM; active = over 0.2 and 3.5 SD of the protein, either way, in both replicates (recomputed)
[1] = compound: CCCS(=O)(=O)Nc1ccc(F)c(C(=O)c2c[nH]c3ncc(Cl)cc23)c1F
Outline: (§1)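 Pellets of K562 cells were dounce-homogenised in PBS pH 7.4 with 1 mM MgCl2, and the crude extract was held at 1 mg/mL protein for a 30 min treatment with 10 μM compound. Aliquots were heated for 3 min over 48°C-58°C and pooled before NP-40 was added to 0.5% at 4°C. The supernatant from 21,000xg for 90 min was quantified by TMTpro 16plex LC-MS/MS with channel sums equalised. Values are reported from duplicates as log-two fold change in thermal stability relative to solvent controls.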

volasertib = compound: CC[C@@H]1C(=O)N(C)c2cnc(Nc3ccc(C(=O)N[C@H]4CC[C@H](N5CCN(CC6CC6)CC5)CC4)cc3OC)nc2N1C(C)C [volasertib]
Outline: as §1

barasertib = compound: CCN(CCCOc1ccc2c(Nc3cc(CC(=O)Nc4cccc(F)c4)[nH]n3)ncnc2c1)CCOP(=O)(O)O [barasertib]
Outline: as §1

[2] = compound: CC[C@@H]1C(=O)N(C)c2cnc(Nc3ccc(C(=O)NC4CCN(C)CC4)cc3OC)nc2N1C1CCCC1
Outline: as §1

[3] = compound: CCn1c(C(=O)N(C2CC2)C2CC2)cc2c3c(ncn3C)c(Nc3cc(C)n(C)n3)nc21
Outline: as §1

[4] = compound: CCn1cc(-c2ccnc3[nH]c(-c4cccc(CN(C)C)c4)cc23)c(-c2ccc(NC(=O)N(C)C)cc2)n1
Outline: as §1

[5] = compound: CN1CCC(CNc2ccc3ncc(-c4cccc(OC(F)(F)F)c4)n3n2)CC1
Outline: as §1

saracatinib = compound: CN1CCN(CCOc2cc(OC3CCOCC3)c3c(Nc4c(Cl)ccc5c4OCO5)ncnc3c2)CC1 [saracatinib]
Outline: as §1

sotrastaurin = compound: CN1CCN(c2nc(C3=C(c4c[nH]c5ccccc45)C(=O)NC3=O)c3ccccc3n2)CC1 [sotrastaurin]
Outline: as §1

vemurafenib = compound: CCCS(=O)(=O)Nc1ccc(F)c(C(=O)c2c[nH]c3ncc(-c4ccc(Cl)cc4)cc23)c1F [vemurafenib]
Outline: as §1

Measured: log2 fold change

IGFN1 isoform 5 (UniProt Q86VF2)
inactive: [1] 0.009 | volasertib 0.038

IL27RA (UniProt Q6UWB1)
inactive: [1] -0.045 | barasertib -0.068 | [2] -0.103 | volasertib -0.116 | [3] 0.081 | [4] -0.033 | [5] 0.011 | saracatinib -0.05 | sotrastaurin 0.037

IDS (UniProt P22304)
inactive: [1] -0.204 | barasertib 0.142 | [2] 0.168 | volasertib -0.067

IMMP1L (UniProt Q96LU5)
inactive: [1] -0.005 | barasertib 0.076 | [2] 0.207 | volasertib 0.019 | [3] -0.012 | [4] 0.005 | [5] -0.085 | saracatinib -0.052 | sotrastaurin -0.03

ID1 (UniProt P41134)
inactive: vemurafenib 0.036 | barasertib 0.063 | [3] 0.004 | [4] 0.032 | [5] 0.016 | saracatinib -0.068 | sotrastaurin -0.001

ING5 (UniProt Q8WYH8)
inactive: [1] 0.035 | barasertib 0.03 | [2] 0.078 | volasertib -0.058 | [3] -0.271 | saracatinib 0.041

IFT122 isoform 5 (UniProt Q9HBG6)
inactive: vemurafenib 0.069 | [3] -0.096 | saracatinib 0.181 | sotrastaurin 0.119

HYOU1, A0A494C039
inactive: [1] 0.091 | barasertib -0.11 | [2] 0.065 | volasertib 0.058 | [4] -0.269 | [5] 0.014 | saracatinib -0.085

INO80E (UniProt Q8NBZ0)
inactive: [1] 0.375 | barasertib -0.09 | [2] -0.02 | volasertib -0.144 | [3] -0.006 | [4] 0.168 | [5] -0.001 | saracatinib 0.161 | sotrastaurin 0.08

ING4 (UniProt Q9UNL4)
inactive: [1] 0.018 | barasertib 0.016 | volasertib 0 | sotrastaurin -0.114

IKZF4 (UniProt Q9H2S9)
inactive: [1] -0.042 | barasertib 0.041 | [2] -0.186 | volasertib -0.063 | [3] 0.088 | sotrastaurin 0.01

HUWE1, A0A087X1S3
inactive: [1] 0.052 | barasertib -0.089 | [2] 0.008 | volasertib -0.028 | [3] -0.114 | [4] 0.043 | [5] 0.241 | saracatinib 0.074

HYKK (UniProt A2RU49)
inactive: [1] 0.04 | barasertib -0.09 | [2] 0.115 | volasertib 0.004 | [3] 0 | sotrastaurin 0.152

IGHG3 (UniProt P01860)
inactive: [1] -0.282 | barasertib -0.29 | volasertib 0.006 | [3] 0.137 | [4] 0.2 | [5] -0.176

Looked up one by one from the entries so far (4):
HUWE1, A0A087X1S3
inactive: [1] 0.052 | barasertib -0.089 | [2] 0.008 | volasertib -0.028 | [3] -0.114 | [4] 0.043 | [5] 0.241 | saracatinib 0.074

HYKK (UniProt A2RU49)
inactive: [1] 0.04 | barasertib -0.09 | [2] 0.115 | volasertib 0.004 | [3] 0 | sotrastaurin 0.152

ING4 (UniProt Q9UNL4)
inactive: [1] 0.018 | barasertib 0.016 | volasertib 0 | sotrastaurin -0.114

IKZF4 (UniProt Q9H2S9)
inactive: [1] -0.042 | barasertib 0.041 | [2] -0.186 | volasertib -0.063 | [3] 0.088 | sotrastaurin 0.01

(listing goes on)

HUWE1 isoform 2 (UniProt Q7Z6Z7)
inactive: [1] 0.159 | [2] -0.201 | volasertib -0.231

IFNAR1 (UniProt P17181)
inactive: [4] 0.037 | [5] 0.003 | saracatinib 0.04 | sotrastaurin 0.1

INHBE (UniProt P58166)
inactive: [4] -0.035 | [5] 0.082 | sotrastaurin 0.045

INCENP (UniProt Q9NQS7)
inactive: saracatinib -0.077

HSPBP1 (UniProt K7EMM7)
inactive: saracatinib -0.024

IFIT3 (UniProt O14879)
inactive: [2] -0.228 | [3] 0.111 | saracatinib 0.112 | sotrastaurin 0.113

ING1 (UniProt Q9UK53)
inactive: barasertib 0.077 | [3] 0.021 | [4] 0.04 | [5] 0.029 | saracatinib 0.022 | sotrastaurin -0.022

INPP5E (UniProt Q9NRR6)
inactive: [4] -0.009 | [5] 0.043 | sotrastaurin 0.018

IGHV3-72, A0A4W8ZXM2
inactive: [3] 0.196 | [4] 0.306 | [5] -0.101

IFT88 (UniProt Q13099)
inactive: [3] 0.1 | sotrastaurin -0.172

IMP4 (UniProt Q96G21)
inactive: [1] 0.046 | volasertib -0.074 | [4] -0.03 | [5] 0.031 | sotrastaurin 0.015

IL13RA1 (UniProt P78552)
inactive: [4] -0.148 | [5] 0.043 | sotrastaurin -0.055

IL15RA (UniProt Q13261)
inactive: sotrastaurin -0.153

INO80 (UniProt Q9ULG1)
inactive: [1] 0.231 | volasertib -0.02 | [4] -0.02 | [5] -0.021 | sotrastaurin 0.081

IGKV3D-7, A0A0C4DH55
inactive: [3] 0.024 | [4] 0.578 | [5] -0.597

HUWE1 (UniProt H0Y659)
inactive: [3] -0.083 | saracatinib -0.264

IFT22 (UniProt Q9H7X7)
inactive: barasertib 0.145 | [2] 0.123 | [3] -0.001 | saracatinib -0.047

IGHM isoform 2 (UniProt P01871)
inactive: [4] 0.804 | [5] -0.352 | saracatinib -1.59

HTRA3 (UniProt P83110)
inactive: [4] -0.274 | [5] 0.442

IDUA (UniProt P35475)
inactive: [4] -0.012 | [5] -0.085 | sotrastaurin 0.243

ICAM4 (UniProt Q14773)
inactive: barasertib 0.189 | [2] 0.085 | [3] 0.078 | [4] -0.034 | [5] -0.076 | saracatinib 0

ILF3 (UniProt K7EKJ9)
inactive: [1] 0.089 | volasertib 0.011 | sotrastaurin 0.084

ICE1 (UniProt Q9Y2F5)
inactive: barasertib 0.178 | [2] 0.084 | [3] -0.274 | [4] -0.006 | [5] 0.041 | saracatinib -0.169 | sotrastaurin -0.1

IGKV3-20 (UniProt P01619)
inactive: [4] 0.469 | [5] -0.48 | saracatinib -0.945

IFT52 (UniProt Q9Y366)
inactive: sotrastaurin -0.166

IFT81 (UniProt Q8WYA0)
inactive: barasertib -0.055 | [3] 0.18 | [4] -0.031 | [5] -0.122 | sotrastaurin 0.082

IL6ST (UniProt P40189)
inactive: [4] 0.351 | [5] -0.417

IGLC3 (UniProt P0DOY3)
inactive: barasertib -0.551 | [4] 0.788 | [5] -1.02 | saracatinib -0.232

HTN3 (UniProt P15516)
inactive: [4] -0.047 | [5] 0.024

ICOSLG isoform 2 (UniProt O75144)
inactive: barasertib 0.25 | [3] -0.245

INAFM2 (UniProt P0DMQ5)
inactive: saracatinib 0.159 | sotrastaurin 0.072

ING2 (UniProt Q9H160)
inactive: [2] 0.082 | sotrastaurin 0.005

INO80B (UniProt Q9C086)
inactive: saracatinib 0.022

IGHA2 (UniProt P01877)
inactive: [3] 0.115 | [4] 0.884 | [5] -1.25

IGKV1D-33, A0A2Q2TTZ9
inactive: [4] 0.919 | [5] -0.326
